Test results published in the supplement of paper PMC10849652.
The list shows a part of the results.

Chains of the proteins cited; added tags and fusions are not shown. Lines headed by an entry give the natural chain unless they say otherwise; changes in a name come on top.
UniProt O75896: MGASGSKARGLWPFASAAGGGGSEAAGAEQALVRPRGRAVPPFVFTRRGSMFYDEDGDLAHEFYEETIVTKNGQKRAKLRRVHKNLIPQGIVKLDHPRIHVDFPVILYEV
UniProt Q9H0U9: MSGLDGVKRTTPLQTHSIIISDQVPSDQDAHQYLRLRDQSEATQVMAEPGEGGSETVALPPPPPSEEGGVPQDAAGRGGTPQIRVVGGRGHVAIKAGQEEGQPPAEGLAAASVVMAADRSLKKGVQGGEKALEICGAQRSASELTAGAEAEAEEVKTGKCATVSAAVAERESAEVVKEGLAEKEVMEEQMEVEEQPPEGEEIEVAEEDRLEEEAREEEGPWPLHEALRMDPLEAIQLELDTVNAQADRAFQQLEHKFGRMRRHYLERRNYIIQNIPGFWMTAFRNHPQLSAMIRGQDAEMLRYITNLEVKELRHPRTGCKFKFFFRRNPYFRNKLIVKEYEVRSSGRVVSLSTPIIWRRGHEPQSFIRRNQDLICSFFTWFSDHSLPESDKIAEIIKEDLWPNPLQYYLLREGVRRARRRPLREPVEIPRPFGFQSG
UniProt Q96AE7: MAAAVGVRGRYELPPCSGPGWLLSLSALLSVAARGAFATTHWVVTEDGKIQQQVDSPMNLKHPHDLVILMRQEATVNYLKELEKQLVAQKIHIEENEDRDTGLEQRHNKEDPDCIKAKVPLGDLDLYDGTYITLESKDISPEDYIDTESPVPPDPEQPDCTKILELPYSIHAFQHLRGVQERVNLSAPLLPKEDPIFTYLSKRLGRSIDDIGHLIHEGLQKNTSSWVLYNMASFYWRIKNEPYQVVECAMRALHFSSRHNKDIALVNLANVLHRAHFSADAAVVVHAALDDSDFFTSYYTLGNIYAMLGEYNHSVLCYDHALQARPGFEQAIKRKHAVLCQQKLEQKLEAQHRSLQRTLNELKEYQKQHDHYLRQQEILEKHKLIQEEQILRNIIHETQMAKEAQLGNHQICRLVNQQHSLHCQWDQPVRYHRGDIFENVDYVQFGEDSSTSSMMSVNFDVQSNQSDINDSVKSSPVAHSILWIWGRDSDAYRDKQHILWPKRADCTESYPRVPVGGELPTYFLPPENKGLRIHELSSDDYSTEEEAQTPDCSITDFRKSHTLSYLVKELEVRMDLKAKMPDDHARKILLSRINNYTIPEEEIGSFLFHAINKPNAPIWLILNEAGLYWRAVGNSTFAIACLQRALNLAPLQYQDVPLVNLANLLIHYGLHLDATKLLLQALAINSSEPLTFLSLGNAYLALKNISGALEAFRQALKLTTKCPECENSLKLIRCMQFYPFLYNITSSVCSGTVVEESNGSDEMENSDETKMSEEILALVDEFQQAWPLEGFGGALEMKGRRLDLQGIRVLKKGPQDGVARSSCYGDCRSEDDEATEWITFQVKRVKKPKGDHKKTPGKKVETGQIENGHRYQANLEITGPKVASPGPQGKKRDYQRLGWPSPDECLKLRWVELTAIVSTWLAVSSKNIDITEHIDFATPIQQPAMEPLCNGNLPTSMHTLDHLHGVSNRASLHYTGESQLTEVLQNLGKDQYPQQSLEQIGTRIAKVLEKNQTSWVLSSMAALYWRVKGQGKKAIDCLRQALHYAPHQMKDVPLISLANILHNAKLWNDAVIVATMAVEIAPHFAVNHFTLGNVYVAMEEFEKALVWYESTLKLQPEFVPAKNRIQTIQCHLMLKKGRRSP
UniProt O14817: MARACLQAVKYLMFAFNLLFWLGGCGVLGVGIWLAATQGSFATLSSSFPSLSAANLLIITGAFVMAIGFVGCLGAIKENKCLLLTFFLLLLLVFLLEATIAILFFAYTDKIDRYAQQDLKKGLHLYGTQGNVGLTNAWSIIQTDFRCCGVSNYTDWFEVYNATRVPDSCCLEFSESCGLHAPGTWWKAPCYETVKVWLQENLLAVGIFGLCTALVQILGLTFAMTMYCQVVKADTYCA
UniProt Q3B726, whole entry, looked up: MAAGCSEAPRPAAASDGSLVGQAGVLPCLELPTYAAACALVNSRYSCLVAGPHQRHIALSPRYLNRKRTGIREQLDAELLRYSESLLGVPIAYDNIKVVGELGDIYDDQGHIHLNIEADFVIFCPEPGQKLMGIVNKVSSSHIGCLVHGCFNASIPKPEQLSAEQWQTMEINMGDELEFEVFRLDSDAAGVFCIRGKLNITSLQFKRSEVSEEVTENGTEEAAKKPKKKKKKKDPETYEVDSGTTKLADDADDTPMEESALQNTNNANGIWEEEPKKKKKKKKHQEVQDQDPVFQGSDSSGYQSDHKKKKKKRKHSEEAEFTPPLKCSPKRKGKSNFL
UniProt Q8WUA8: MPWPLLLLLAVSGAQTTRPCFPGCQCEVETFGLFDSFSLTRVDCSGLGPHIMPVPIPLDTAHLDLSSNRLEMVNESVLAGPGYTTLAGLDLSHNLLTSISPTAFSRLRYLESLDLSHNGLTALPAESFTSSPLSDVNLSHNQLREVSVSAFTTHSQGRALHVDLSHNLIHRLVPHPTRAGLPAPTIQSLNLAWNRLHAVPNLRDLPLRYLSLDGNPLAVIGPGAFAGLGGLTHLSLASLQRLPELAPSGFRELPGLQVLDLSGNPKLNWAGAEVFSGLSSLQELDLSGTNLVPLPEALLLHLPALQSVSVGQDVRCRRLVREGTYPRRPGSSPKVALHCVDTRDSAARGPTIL
UniProt O14933: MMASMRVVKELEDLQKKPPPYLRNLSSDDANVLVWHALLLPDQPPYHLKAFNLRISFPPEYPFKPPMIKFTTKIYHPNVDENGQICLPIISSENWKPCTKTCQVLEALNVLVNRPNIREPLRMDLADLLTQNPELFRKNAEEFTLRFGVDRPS
UniProt A2RUC4: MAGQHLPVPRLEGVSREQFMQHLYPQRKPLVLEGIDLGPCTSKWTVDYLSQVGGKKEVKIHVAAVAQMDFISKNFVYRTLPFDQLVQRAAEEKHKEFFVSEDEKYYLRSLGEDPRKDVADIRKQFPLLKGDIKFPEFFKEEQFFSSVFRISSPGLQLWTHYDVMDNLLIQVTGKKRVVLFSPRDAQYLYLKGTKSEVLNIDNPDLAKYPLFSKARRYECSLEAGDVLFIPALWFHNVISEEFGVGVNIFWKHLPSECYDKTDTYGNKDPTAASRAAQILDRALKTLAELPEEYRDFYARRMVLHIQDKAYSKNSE
UniProt Q96RR1: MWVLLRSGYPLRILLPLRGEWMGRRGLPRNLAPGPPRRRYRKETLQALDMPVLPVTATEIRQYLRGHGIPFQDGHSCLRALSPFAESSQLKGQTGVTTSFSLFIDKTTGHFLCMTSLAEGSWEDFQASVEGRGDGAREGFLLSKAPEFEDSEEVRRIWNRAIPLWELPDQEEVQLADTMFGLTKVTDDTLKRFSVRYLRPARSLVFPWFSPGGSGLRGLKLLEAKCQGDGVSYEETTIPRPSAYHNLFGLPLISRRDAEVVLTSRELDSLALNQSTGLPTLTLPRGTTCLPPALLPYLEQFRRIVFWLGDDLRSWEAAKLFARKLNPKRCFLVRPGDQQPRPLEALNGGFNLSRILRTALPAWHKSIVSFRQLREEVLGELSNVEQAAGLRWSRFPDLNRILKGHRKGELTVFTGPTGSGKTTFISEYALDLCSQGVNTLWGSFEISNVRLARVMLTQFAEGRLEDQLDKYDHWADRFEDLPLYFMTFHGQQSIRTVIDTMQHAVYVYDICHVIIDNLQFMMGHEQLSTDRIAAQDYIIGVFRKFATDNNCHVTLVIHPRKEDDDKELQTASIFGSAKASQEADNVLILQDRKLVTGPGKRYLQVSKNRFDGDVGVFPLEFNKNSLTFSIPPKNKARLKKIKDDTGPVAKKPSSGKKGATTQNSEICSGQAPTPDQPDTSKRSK
UniProt Q96FV3: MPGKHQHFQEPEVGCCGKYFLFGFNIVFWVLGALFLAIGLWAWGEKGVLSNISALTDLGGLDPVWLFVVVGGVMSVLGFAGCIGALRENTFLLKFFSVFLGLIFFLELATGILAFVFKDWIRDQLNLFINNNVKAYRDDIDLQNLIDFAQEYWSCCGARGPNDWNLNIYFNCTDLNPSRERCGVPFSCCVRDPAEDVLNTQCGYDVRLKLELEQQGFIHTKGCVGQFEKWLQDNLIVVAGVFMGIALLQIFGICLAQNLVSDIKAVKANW
UniProt Q9UJT1: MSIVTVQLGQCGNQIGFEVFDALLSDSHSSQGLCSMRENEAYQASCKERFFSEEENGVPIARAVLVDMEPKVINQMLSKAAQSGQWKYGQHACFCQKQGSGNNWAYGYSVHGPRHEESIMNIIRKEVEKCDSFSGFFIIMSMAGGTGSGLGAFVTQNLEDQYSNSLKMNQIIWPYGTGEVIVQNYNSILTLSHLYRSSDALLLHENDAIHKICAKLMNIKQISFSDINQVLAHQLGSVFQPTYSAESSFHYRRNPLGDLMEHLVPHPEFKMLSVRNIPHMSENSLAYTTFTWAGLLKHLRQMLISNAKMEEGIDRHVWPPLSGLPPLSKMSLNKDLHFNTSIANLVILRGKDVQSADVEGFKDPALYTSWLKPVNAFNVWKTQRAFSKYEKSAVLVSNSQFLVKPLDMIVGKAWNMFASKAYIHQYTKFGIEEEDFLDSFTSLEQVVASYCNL
UBE2L5, A0A1B0GUS4, UniProt A0A1B0GUS4, whole entry, looked up: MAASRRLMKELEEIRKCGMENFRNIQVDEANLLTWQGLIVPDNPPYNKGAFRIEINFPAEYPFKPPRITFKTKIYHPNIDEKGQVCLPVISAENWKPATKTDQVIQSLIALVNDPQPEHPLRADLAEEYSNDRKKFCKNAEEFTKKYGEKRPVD
UniProt Q96RT7, whole entry, looked up: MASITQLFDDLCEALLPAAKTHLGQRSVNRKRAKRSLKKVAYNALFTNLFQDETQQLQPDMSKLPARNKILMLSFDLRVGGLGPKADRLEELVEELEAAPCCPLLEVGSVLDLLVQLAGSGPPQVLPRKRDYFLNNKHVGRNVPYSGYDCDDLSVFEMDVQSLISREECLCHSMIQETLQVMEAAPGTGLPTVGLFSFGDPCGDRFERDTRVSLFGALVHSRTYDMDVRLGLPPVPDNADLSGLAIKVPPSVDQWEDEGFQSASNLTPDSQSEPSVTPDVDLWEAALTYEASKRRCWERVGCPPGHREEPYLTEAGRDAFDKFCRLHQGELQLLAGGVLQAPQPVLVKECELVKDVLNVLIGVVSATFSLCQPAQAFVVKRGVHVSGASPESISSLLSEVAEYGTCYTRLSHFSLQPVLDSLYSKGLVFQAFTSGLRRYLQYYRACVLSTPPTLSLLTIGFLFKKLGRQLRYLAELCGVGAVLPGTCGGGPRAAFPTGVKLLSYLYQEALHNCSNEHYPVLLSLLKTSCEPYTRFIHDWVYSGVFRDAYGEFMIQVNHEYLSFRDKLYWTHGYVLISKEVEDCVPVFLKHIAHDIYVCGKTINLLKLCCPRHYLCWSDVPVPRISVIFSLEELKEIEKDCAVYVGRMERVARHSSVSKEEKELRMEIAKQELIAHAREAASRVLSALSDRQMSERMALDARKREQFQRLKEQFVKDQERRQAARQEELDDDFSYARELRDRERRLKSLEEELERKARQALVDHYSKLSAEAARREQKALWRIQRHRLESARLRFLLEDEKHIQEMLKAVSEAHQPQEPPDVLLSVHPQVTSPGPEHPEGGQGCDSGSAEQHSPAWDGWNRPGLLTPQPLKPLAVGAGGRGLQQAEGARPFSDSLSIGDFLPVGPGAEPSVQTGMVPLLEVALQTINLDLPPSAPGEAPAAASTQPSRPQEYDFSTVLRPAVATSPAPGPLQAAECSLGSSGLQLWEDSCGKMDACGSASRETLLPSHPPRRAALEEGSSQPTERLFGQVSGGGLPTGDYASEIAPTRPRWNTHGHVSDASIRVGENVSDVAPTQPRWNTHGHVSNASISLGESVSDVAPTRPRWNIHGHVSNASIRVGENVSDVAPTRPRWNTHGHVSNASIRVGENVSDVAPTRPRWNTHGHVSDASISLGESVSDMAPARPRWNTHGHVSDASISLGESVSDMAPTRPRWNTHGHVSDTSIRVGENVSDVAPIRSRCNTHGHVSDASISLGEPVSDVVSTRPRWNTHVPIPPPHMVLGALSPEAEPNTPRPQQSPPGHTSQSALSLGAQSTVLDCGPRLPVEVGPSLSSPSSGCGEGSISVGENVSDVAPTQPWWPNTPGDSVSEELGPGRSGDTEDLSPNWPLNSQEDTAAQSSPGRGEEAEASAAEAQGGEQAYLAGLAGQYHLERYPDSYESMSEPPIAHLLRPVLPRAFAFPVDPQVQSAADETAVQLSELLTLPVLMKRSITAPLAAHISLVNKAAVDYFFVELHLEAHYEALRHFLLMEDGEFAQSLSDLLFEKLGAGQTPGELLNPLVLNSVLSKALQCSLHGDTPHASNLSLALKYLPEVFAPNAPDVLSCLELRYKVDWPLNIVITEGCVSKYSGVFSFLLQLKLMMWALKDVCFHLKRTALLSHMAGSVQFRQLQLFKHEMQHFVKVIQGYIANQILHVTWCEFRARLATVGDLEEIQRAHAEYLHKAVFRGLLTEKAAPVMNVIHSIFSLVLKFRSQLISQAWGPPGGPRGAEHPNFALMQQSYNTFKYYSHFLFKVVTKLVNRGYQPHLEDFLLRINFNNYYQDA

Assays:
Experiment in all cases: log2 fold change, soluble protein after heating vs DMSO (PISA); higher = thermal stabilisation; K562 cells, 10 uM, 30 min; active = over 0.2 and 3.5 SD of the protein, either way, in both replicates (recomputed)
[1] = compound: NC(=O)Nc1cc(-c2cccc(F)c2)sc1C(=O)N[C@H]1CCCNC1
In short: (§1)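 Quantification of soluble protein used TMTpro 16plex LC-MS/MS, with channel sums equalised. Samples were the supernatant after 21,000xg for 90 min of pooled aliquots from K562 cells (2×10^6 cells/mL) treated with 10 μM compound for 30 min, heated for 3 min over 48°C-58°C, and extracted in PBS with 0.5% NP-40 at 4°C. Values, from duplicates, describe thermal stability against control samples on a log2 fold-change scale.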

[2] = compound: NC(=O)c1cnc(N[C@@H]2CCCC[C@@H]2N)nc1Nc1cccc(-n2nccn2)c1
In short: as §1

entinostat = compound: Nc1ccccc1NC(=O)c1ccc(CNC(=O)OCc2cccnc2)cc1 [entinostat]
In short: as §1

vorinostat = compound: O=C(CCCCCCC(=O)Nc1ccccc1)NO [vorinostat]
In short: as §1

citarinostat = compound: O=C(CCCCCCNC(=O)c1cnc(N(c2ccccc2)c2ccccc2Cl)nc1)NO [citarinostat]
In short: as §1

[3] = compound: O=C1NC(=O)C(c2cnc3ccccn23)=C1c1cn2c3c(cc(F)cc13)CN(C(=O)N1CCCCC1)CC2
In short: as §1

[4] = compound: c1cc(OCCN2CCCCC2)cc(-c2n[nH]c3ccc(-c4nnc[nH]4)cc23)c1
In short: as §1

[5] = compound: NCC(=O)Nc1ccc(-n2nc(C(F)(F)F)cc2-c2ccc3c(ccc4ccccc43)c2)cc1
In short: as §1

[6] = compound: NC1(c2ccc(-c3nc4ccn5c(=O)[nH]nc5c4cc3-c3ccccc3)cc2)CCC1
In short: as §1

silmitasertib = compound: O=C(O)c1ccc2c(c1)nc(Nc1cccc(Cl)c1)c1ccncc12 [silmitasertib]
In short: as §1

Measured: log2 fold change

TUT7 (UniProt Q5VYS8)
inactive: [1] 0.177 | [2] -0.119 | entinostat -0.045 | vorinostat -0.102 | citarinostat -0.245 | [3] 0.444 | [4] 0.381

TTK (UniProt P33981)
inactive: [5] -0.035 | [3] 0.366

TUSC2 (UniProt O75896)
inactive: [1] -0.015 | [6] -0.113 | entinostat 0.102 | silmitasertib -0.15 | [3] -0.17

TTR (UniProt P02766)
inactive: [2] 0.274 | [6] 0.097 | silmitasertib -0.34

TUBGCP4 (UniProt Q9UGJ1)
inactive: [1] 0.023 | [2] 0.062 | entinostat 0.14 | citarinostat -0.053 | [4] -0.21

TXNDC2 (UniProt Q86VQ3)
inactive: [1] 0.011 | [2] -0.228 | [5] 0.009 | entinostat -0.151 | citarinostat -0.069 | [4] 0

TSPYL1 (UniProt Q9H0U9)
inactive: [2] -0.184

TTC17 isoform 2 (UniProt Q96AE7)
inactive: vorinostat -0.049

UBE2K (UniProt D6RDM7)
inactive: [1] -0.387 | [5] -0.078 | entinostat -0.04 | citarinostat -0.218 | [3] 0.098 | [4] -0.409

UBE3B (UniProt Q7Z3V4)
inactive: [1] 0.034 | [2] -0.043 | entinostat -0.046 | [3] -0.037

TSPAN4 (UniProt O14817)
inactive: [6] 0.11 | citarinostat -0.069 | silmitasertib 0.043 | [4] -0.119

TTC26
inactive: [5] 0.006

TWISTNB (UniProt Q3B726)
inactive: [1] -0.19 | [6] -0.059 | [5] -0.176 | entinostat -0.003 | vorinostat 0.189 | silmitasertib -0.364 | [3] -0.107

TUBGCP5 (UniProt Q96RT8)
inactive: vorinostat 0.045 | citarinostat -0.082 | [3] 0.071 | [4] -0.017

TUBB8 (UniProt Q3ZCM7)
inactive: [1] 0.107 | entinostat -0.031

TXNRD1 isoform 7 (UniProt Q16881)
inactive: [1] -0.083 | [5] -0.214 | entinostat 0.065 | vorinostat 0.21 | citarinostat -0.171 | [3] -0.227 | [4] 0.171

TSKU (UniProt Q8WUA8)
inactive: [5] 0.082

TTC12 isoform 2 (UniProt Q9H892)
inactive: [1] -0.087 | [6] -0.219 | entinostat -0.135 | citarinostat -0.233 | silmitasertib 0.097 | [3] 0.019 | [4] -0.16

TTC14 (UniProt Q96N46)
inactive: [1] -0.054 | entinostat -0.076 | citarinostat 0.083 | [4] -0.097

TUT4 (UniProt Q5TAX3)
inactive: [1] 0.028 | [6] 0.07 | [5] -0.349 | entinostat 0.004 | vorinostat -0.032 | citarinostat -0.161 | silmitasertib 0.094 | [3] 0.322 | [4] -0.063

UBE2L6 (UniProt O14933)
inactive: [2] -0.084

TVP23C (UniProt Q96ET8)
inactive: [2] -0.021 | [6] -0.023 | [5] -0.003 | vorinostat 0.045 | citarinostat -0.297 | silmitasertib 0.132 | [4] 0.081

TSPAN13 (UniProt O95857)
inactive: [1] -0.091 | [6] -0.125 | [5] 0.03 | entinostat -0.109 | vorinostat 0.002 | silmitasertib 0 | [3] -0.166

TUBA4A (UniProt C9JJQ8)
inactive: [1] -0.035 | [5] 0.053 | entinostat 0.093 | citarinostat 0.039 | [4] 0.206

TYW5 (UniProt A2RUC4)
inactive: [2] 0.146 | [6] 0.065 | [5] 0.033 | vorinostat 0.141 | silmitasertib -0.166 | [3] -0.068

U2AF1L5 (UniProt P0DN76)
inactive: [2] 0.047 | [6] 0.07 | [5] -0.295 | citarinostat -0.28 | silmitasertib -0.024 | [4] -0.146

TUBB2B (UniProt Q9BVA1)
inactive: [1] -0.101 | [2] -0.027 | [5] -0.017 | entinostat -0.039 | vorinostat 0.063 | citarinostat -0.003 | [4] -0.04

TWNK (UniProt Q96RR1)
inactive: [2] -0.046 | [5] -0.114 | [3] 0.282

TSPAN17 isoform 4 (UniProt Q96FV3)
inactive: [1] 0.28 | entinostat -0.444 | [3] -0.042

TSPYL4 (UniProt Q9UJ04)
inactive: [5] -0.069

UBAP2L (UniProt F8W726)
inactive: [6] 0.083 | vorinostat -0.033 | citarinostat 0.095 | silmitasertib 0.004 | [4] -0.066

Fetched one by one from the list above (2):
TSPAN17 isoform 4 (UniProt Q96FV3)
inactive: [1] 0.28 | entinostat -0.444 | [3] -0.042

TWNK (UniProt Q96RR1)
inactive: [2] -0.046 | [5] -0.114 | [3] 0.282

(list continues)

TUBD1 (UniProt Q9UJT1)
inactive: [1] 0.132 | [2] 0.079 | entinostat 0.041

UBE2L5, A0A1B0GUS4
inactive: [5] 0.108 | citarinostat 0 | [4] -0.033

TTC37 (UniProt Q6PGP7)
inactive: [2] -0.163 | [5] -0.07 | citarinostat 0.167 | [3] -0.776 | [4] 0.167

TUBB8B (UniProt A6NNZ2)
inactive: [1] -0.003 | [6] -0.066 | [5] 0.073 | entinostat 0.033 | citarinostat 0.059 | silmitasertib -0.086 | [3] -0.026 | [4] -0.06

TYRO3 (UniProt Q06418)
inactive: [1] 0.037 | entinostat 0.017 | [3] -0.298

TTC13 (UniProt Q8NBP0)
inactive: [1] -0.127 | [2] 0.169 | [5] -0.126 | entinostat 0.113 | vorinostat 0.182 | citarinostat 0.025 | [4] 0.043

TTC5 (UniProt Q8N0Z6)
inactive: [1] 0.12 | entinostat 0.196 | citarinostat 0.06 | [4] -0.182

TUBGCP6 (UniProt Q96RT7)
inactive: [2] -0.025

TYK2 (UniProt P29597)
inactive: [1] -0.276 | entinostat 0.23
